Measurements: US20070092467A1, “Oxyacetamide compounds useful for stimulating or inducing the growth and/or retarding the loss of keratin fibers” (L'OREAL, priority 2004, published 2007)
Some entries share one result that the patent states for a list of compounds.

Molecular target: T1, PGF synthase (Homo sapiens, UniProt P42330)
T1 construct: made in house
T1 sequence (P42330 1-323): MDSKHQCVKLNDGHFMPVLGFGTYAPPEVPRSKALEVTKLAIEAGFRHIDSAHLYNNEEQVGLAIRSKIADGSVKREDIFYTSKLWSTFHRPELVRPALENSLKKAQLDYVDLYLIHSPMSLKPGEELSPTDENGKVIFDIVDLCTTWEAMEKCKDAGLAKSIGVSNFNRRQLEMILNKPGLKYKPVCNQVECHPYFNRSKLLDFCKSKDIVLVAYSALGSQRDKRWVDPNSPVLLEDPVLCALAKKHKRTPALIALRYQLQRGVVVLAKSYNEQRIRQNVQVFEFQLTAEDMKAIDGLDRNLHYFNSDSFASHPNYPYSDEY
Assay: Test on PGF synthase (spectrophotometric, 340 nm, maximum reaction rate)
Format: biochemical
Settings: compound at 100 μM
Experimental: For the purposes of the test, this suspension is thawed and stored in ice.
0.950 mL of this buffer (brought to 37° C. beforehand) is introduced into the cuvette of a spectrophotometer (Perkin-Elmer, Lambda 2) thermostatically maintained at 37° C., the measuring wavelength of which is set at 340 nm. 0.05 mL of enzymatic suspension at 37° C. is introduced into the cuvette concomitantly with the recording (corresponding to a reduction in the optical density at 340 nm). The maximum reaction rate is recorded.

| Structure (SMILES) | inhibition of the enzyme PGFS at 100 μM |
| --- | --- |
| O=C(COCc1ccccc1)NC[C@@H]1CCCO1 (stereo in doubt) [Compound 14, 2-benzyloxy-N-(tetrahydrofuran-2-ylmethyl)acetamide] | do not inhibit |
| Cc1cccc(C)c1NC(=O)COc1cccc2cccnc12 [Compound 1, N-(2,6-dimethylphenyl)-2-(quinolin-8-yloxy)acetamide] | do not inhibit |
| O=C(COc1cccc2cccnc12)Nc1ccccc1Cl [Compound 2] | do not inhibit |
| O=C(COc1cccc2cccnc12)Nc1ccccc1C(F)(F)F [Compound 3, 2-(quinolin-8-yloxy)-N-(2-trifluoromethylphenyl)acetamide] | do not inhibit |
| CCOC(=O)c1ccc(NC(=O)COc2ccc(C(C)=O)cc2)cc1 [Compound 4, 4-[2-(4-Acetylphenoxy)acetylamino]benzoic acid ethyl] | do not inhibit |
| Cc1nc2cc(OCC(=O)Nc3ccc(OC(F)(F)F)cc3)ccc2s1 [Compound 5, 2-(2-Methyl-benzothiazol-5-yloxy)-N-(4-trifluoromethoxy-phenyl) acetamide] | do not inhibit |
| O=C(COc1ccc(-n2ccnc2)cc1)Nc1ccccc1Cl [Compound 6, N-(2-Chloro-phenyl)-2-(4-imidazol-1-yl-phenoxy)-acetamide] | do not inhibit |
| O=C(COc1ccc2c(c1)C(=O)c1ccccc1-2)Nc1cccc(C(F)(F)F)c1 [Compound 7, 2-(9-Oxo-9H-fluoren-2-yloxy)-N-(3-trifluoromethyl-phenyl) acetamide] | do not inhibit |
| O=C(COc1ccc2c(c1)C(=O)c1ccccc1-2)Nc1ccc(C(F)(F)F)cc1 [Compound 8, 2-(9-Oxo-9H-fluoren-2-yloxy)-N-(4-trifluoromethyl-phenyl) acetamide] | do not inhibit |
| CCCCCCc1ccc(NC(=O)COc2ccc3sc(C)nc3c2)cc1 [Compound 9, N-(4-Hexyl-phenyl)-2-(2-methyl-benzothiazol-5-yloxy) acetamide] | do not inhibit |
| O=C(COc1ccc(-n2cccc2)cc1)Nc1ccccc1C(F)(F)F [Compound 10] | do not inhibit |
| O=C(COc1ccc2oc3ccccc3c2c1)Nc1ccc(OC(F)(F)F)cc1 [Compound 11, 2-(Dibenzofuran-2-yloxy)-N-(4-trifluoromethoxy-phenyl) acetamide] | do not inhibit |
| O=C(COc1ccc(-n2ccnc2)cc1)Nc1ccccc1C(F)(F)F [Compound 12, 2-(4-imidazol-1-yl-phenoxy)-N-(2-trifluoromethyl-phenyl) acetamide] | do not inhibit |
| COc1cc(C(C)=O)ccc1OCC(=O)Nc1ccccc1C(F)(F)F [Compound 13, 2-(4-Acetyl-2-methoxy-phenoxy)-N-(2-trifluoromethyl-phenyl) acetamide] | do not inhibit |
| Cc1ccc(CNC(=O)COCc2ccccc2)o1 [Compound 15, 2-Benzyloxy-N-(5-methyl-furan-2-ylmethyl)-acetamide] | do not inhibit |
| O=C(COCc1ccccc1)NC1CCCC1 [Compound 16, 2-Benzyloxy-N-cyclopentylacetamide] | do not inhibit |
| CSCCNC(=O)COc1ccccc1 [Compound 20] | do not inhibit |
| O=C(COCc1ccccc1)NCc1ccccc1 [Compound 27] | do not inhibit |
| N#Cc1ccc(-c2ccc(OCC(=O)Nc3cccc([N+](=O)[O-])c3)cc2)cc1 [Compound 28] | do not inhibit |
| O=C(COc1ccccc1)NC[C@@H]1CCCO1 [Compound 29] | do not inhibit |
| CCCCCCNC(=O)COc1ccccc1 [Compound 31] | do not inhibit |
| CC(=O)c1ccc(OCC(=O)Nc2ccccc2C(F)(F)F)cc1 [Compound 32] | do not inhibit |
| O=C(COc1ccccc1)NCc1ccccc1 [Compound 33] | do not inhibit |
| O=C(COc1cccc2cccnc12)Nc1cccc([N+](=O)[O-])c1 [Compound 34] | do not inhibit |
| O=C(COc1ccc(-c2ccccc2)cc1)Nc1ccccc1C(F)(F)F [Compound 35] | do not inhibit |
